PubChem BioAssay AID1259424 | University of Nebraska Medical Center | 2018

Assay: 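Find knockdowns that reproduce the expression shifts seen after KSR1 loss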 (primary screen)
System: human HCT116 colon cancer cells
Knock-down reagent: siRNA pool against human genes, 50 nM
Measurement: 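Six signature mRNAs by branched-DNA multiplex assay, scaled to two housekeeping genes and non-targeting median, log2; matched to mean KSR1 knockdown profile by Pearson correlation and euclidean distance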
Reading the numbers: mean correlation with KSR1 profile: higher = expression change more like KSR1 knockdown; mean distance from KSR1 profile: higher = expression change less like KSR1 knockdown
The deposit covers about 14,000 reagents; shown is a random part of them. 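Higher correlation or smaller distance means closer resemblance to KSR1 loss; control wells, including KSR1 knockdowns, recur on many plates.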 Not all columns of the deposit are shown. Reagent sequences are not shown. The record does not give: the time to read-out.

With knock-down of GIMAP2 the results were mean correlation with KSR1 profile 0.399; mean distance from KSR1 profile 1.33.
Against GFRA2, the values are mean correlation with KSR1 profile 0.0995; mean distance from KSR1 profile 2.74.
After knock-down of PCDHA9 the results were mean correlation with KSR1 profile -0.313; mean distance from KSR1 profile 1.95.
Knock-down of PIGT resulted in: mean correlation with KSR1 profile -0.189; mean distance from KSR1 profile 3.95.
MASP2 scored mean correlation with KSR1 profile 0.00438; mean distance from KSR1 profile 3.17.
Against AMIGO1, the entry reads mean correlation with KSR1 profile 0.677; mean distance from KSR1 profile 3.
For E2F8, the entry reads mean correlation with KSR1 profile 0.29; mean distance from KSR1 profile 2.71.
With knock-down of PAMR1 the results were mean correlation with KSR1 profile -0.0937; mean distance from KSR1 profile 1.89.
NR2E3 scored mean correlation with KSR1 profile -0.0242; mean distance from KSR1 profile 2.61.

Sorted by “mean distance from KSR1 profile” (highest first): some entries from above.
AMIGO1 — mean correlation with KSR1 profile: 0.677; mean distance from KSR1 profile: 3
E2F8 — mean correlation with KSR1 profile: 0.29; mean distance from KSR1 profile: 2.71
PAMR1 — mean correlation with KSR1 profile: -0.0937; mean distance from KSR1 profile: 1.89

Continued:
After knock-down of LPIN1, the record shows mean correlation with KSR1 profile 0.61; mean distance from KSR1 profile 1.03.
For KDM6B, the values are mean correlation with KSR1 profile 0.131; mean distance from KSR1 profile 2.55.
With knock-down of DIRAS1, the screen gave mean correlation with KSR1 profile 0.266; mean distance from KSR1 profile 1.63.
With knock-down of NDST1 the results were mean correlation with KSR1 profile 0.341; mean distance from KSR1 profile 2.55.
Against MRPL46 the deposit lists mean correlation with KSR1 profile 0.203; mean distance from KSR1 profile 1.79.
For DNAJC4, the values are mean correlation with KSR1 profile -0.15; mean distance from KSR1 profile 1.52.
Knock-down of PIGX gave: mean correlation with KSR1 profile 0.0528; mean distance from KSR1 profile 2.41.
ZNF197 scored mean correlation with KSR1 profile -0.514; mean distance from KSR1 profile 2.16.
Against FOLH1B the deposit lists mean correlation with KSR1 profile 0.304; mean distance from KSR1 profile 2.04.
NCF1C showed mean correlation with KSR1 profile 0.3; mean distance from KSR1 profile 2.43.
With knock-down of LSR, the screen gave mean correlation with KSR1 profile -0.208; mean distance from KSR1 profile 4.35.
ZSCAN16 showed mean correlation with KSR1 profile 0.0277; mean distance from KSR1 profile 2.04.
Against TRIM24, the entry reads mean correlation with KSR1 profile -0.0439; mean distance from KSR1 profile 2.11.
After knock-down of GLT8D1 the results were mean correlation with KSR1 profile 0.619; mean distance from KSR1 profile 1.2.
After knock-down of BCOR the results were mean correlation with KSR1 profile 0.363; mean distance from KSR1 profile 4.08.
With knock-down of BMP5, the screen gave mean correlation with KSR1 profile -0.36; mean distance from KSR1 profile 1.78.
IL12B showed mean correlation with KSR1 profile -0.102; mean distance from KSR1 profile 1.74.
CCDC181 showed mean correlation with KSR1 profile 0.292; mean distance from KSR1 profile 1.82.
Against BFAR, the entry reads mean correlation with KSR1 profile 0.0991; mean distance from KSR1 profile 1.28.
